These are yes or no findings as the source states them, for the method shown. In cells and extracts the contact can be indirect. Some results given as binding are weak or reduced against the parent protein; the word gives no strength. For some of these results: Tags and fused reporters may be left off the sequences shown.
T1: histone deacetylase 6 (HDAC6), endogenous, mouse (mouse (endogenous in mouse ovary, kidney and liver)) (UniProt Q9Z2V5)
T1 sequence: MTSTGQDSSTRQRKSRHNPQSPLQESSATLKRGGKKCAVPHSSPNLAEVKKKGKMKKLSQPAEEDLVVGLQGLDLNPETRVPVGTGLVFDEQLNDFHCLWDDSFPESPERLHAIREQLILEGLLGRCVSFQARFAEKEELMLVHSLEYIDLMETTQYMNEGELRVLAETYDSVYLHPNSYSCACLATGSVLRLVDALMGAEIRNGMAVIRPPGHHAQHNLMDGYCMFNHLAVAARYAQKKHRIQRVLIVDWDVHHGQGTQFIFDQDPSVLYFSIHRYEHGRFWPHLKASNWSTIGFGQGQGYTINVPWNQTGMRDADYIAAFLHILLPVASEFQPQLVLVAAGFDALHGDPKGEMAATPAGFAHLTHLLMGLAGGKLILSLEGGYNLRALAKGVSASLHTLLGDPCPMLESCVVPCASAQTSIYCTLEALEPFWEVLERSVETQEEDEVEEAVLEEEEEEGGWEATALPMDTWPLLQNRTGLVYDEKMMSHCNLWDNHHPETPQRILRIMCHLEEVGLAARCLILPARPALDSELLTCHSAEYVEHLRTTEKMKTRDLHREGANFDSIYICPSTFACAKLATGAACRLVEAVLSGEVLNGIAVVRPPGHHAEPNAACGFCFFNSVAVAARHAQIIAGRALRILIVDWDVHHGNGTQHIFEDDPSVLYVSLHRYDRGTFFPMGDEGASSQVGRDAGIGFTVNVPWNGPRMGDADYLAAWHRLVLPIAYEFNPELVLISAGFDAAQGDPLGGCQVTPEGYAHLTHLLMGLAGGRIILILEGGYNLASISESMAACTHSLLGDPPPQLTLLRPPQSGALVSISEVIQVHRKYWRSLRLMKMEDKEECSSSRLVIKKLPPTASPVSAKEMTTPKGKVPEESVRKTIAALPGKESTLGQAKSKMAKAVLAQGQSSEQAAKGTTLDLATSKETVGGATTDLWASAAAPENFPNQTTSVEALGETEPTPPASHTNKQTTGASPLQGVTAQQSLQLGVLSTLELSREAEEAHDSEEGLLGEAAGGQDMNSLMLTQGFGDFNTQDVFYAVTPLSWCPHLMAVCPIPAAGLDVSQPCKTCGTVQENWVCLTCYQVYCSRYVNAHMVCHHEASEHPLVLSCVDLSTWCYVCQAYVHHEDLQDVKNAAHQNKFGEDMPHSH

The chains behind the UniProt entries cited, without tags or fusion partners.
UniProt Q9UBN7: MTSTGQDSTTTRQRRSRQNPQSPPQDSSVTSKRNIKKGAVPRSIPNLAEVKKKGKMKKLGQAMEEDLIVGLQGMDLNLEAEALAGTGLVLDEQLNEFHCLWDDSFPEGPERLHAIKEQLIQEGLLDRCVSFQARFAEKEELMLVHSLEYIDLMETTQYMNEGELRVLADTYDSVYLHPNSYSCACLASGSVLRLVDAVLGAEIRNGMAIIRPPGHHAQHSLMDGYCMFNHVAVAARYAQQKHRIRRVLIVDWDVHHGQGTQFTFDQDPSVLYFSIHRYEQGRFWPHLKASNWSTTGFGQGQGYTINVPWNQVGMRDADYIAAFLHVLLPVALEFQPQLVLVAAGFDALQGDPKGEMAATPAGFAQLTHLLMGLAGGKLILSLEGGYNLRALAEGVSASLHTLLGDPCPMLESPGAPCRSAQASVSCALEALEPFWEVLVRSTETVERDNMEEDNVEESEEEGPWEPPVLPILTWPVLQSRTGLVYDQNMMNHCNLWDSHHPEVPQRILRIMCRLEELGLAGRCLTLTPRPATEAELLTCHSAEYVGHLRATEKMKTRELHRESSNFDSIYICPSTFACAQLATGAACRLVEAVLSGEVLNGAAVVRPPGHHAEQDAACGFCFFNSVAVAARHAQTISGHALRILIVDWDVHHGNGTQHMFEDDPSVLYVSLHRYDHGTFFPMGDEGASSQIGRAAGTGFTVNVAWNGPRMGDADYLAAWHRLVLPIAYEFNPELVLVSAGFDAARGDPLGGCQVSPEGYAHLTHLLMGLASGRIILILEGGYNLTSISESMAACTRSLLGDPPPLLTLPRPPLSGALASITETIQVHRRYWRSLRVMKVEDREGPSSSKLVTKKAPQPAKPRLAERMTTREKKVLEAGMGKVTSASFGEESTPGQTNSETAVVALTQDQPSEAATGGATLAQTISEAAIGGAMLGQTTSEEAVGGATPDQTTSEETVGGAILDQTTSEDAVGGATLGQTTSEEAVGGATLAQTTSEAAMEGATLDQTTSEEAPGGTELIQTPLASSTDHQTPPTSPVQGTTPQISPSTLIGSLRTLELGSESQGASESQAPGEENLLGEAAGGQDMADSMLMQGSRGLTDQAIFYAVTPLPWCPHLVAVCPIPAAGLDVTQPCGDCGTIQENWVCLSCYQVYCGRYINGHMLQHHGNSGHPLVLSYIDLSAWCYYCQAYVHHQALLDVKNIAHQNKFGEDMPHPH
UniProt Q61037: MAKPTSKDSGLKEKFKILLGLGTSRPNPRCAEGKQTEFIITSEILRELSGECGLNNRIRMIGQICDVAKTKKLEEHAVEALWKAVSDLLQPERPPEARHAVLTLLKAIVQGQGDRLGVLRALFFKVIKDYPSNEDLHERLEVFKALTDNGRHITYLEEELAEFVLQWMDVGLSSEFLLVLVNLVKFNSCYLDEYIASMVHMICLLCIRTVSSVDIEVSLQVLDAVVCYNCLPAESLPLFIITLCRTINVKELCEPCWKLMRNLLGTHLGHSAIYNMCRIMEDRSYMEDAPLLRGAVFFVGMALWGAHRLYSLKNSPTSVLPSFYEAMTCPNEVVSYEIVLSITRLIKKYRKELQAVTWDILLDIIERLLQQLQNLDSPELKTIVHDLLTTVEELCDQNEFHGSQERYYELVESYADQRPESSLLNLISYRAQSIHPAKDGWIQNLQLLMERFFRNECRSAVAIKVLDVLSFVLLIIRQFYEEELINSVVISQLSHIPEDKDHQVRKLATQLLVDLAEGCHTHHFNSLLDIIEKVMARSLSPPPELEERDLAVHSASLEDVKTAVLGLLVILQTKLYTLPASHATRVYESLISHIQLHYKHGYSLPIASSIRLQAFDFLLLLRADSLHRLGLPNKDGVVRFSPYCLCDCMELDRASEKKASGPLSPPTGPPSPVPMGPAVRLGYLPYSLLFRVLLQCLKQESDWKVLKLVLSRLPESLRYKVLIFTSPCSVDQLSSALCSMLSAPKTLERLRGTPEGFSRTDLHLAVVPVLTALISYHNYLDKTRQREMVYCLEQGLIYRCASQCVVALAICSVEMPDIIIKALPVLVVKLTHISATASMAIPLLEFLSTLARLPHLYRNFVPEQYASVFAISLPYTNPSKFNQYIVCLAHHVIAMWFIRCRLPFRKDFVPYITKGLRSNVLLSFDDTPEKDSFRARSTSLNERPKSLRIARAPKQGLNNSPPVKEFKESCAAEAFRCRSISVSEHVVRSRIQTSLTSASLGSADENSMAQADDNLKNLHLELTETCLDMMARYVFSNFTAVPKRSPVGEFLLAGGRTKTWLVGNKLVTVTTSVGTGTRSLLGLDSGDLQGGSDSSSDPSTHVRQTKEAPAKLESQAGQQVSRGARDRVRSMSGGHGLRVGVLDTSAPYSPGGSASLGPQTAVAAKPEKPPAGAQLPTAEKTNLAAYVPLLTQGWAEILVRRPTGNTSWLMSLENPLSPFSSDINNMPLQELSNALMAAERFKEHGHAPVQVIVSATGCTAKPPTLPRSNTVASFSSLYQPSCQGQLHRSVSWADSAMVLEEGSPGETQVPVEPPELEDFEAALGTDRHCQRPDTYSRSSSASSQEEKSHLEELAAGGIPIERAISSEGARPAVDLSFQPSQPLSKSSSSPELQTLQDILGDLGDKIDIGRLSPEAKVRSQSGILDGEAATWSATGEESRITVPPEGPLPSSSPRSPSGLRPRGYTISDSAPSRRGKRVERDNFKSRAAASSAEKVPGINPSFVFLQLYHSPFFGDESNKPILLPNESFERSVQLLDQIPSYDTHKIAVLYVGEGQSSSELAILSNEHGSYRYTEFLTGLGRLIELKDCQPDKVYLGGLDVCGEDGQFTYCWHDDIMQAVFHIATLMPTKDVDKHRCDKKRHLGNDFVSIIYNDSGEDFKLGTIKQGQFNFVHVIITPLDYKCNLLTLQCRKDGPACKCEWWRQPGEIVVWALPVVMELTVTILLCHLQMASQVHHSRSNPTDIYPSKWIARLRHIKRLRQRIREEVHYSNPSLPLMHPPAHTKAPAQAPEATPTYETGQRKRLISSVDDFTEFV

T2: mouse HDAC6 fused with a GFP tag (Hdac6-OE transgenic mouse) (mouse) (UniProt Q9Z2V5)
T2 sequence: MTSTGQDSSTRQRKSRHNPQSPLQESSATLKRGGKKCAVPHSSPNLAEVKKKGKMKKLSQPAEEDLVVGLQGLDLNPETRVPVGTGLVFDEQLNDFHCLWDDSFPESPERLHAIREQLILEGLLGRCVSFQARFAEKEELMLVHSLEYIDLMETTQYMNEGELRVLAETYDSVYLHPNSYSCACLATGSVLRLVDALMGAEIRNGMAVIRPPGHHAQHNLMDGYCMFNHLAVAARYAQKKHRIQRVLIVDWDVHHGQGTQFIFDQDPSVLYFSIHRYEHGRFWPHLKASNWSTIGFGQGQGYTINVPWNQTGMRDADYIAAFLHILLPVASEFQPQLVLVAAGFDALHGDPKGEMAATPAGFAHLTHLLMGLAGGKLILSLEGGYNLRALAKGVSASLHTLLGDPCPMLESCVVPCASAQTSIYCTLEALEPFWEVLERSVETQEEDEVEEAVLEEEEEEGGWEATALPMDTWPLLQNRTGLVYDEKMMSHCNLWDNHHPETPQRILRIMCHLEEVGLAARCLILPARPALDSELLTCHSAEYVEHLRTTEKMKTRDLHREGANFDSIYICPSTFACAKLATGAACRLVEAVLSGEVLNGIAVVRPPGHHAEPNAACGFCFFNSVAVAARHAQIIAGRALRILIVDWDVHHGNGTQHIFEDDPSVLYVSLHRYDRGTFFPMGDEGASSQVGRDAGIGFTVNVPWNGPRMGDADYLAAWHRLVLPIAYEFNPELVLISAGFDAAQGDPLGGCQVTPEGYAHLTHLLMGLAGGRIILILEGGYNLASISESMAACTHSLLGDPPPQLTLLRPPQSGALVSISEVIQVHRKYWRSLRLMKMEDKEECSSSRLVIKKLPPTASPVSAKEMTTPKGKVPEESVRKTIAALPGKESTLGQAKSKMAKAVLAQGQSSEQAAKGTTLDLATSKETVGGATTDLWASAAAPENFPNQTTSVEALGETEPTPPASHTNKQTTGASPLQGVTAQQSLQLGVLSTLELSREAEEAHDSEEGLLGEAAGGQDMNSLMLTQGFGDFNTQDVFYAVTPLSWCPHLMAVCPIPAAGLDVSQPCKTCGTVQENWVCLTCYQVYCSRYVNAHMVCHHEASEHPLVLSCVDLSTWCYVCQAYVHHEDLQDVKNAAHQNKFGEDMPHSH


How the values were obtained:
[1] = target: T1, histone deacetylase 6 (HDAC6), endogenous, mouse (mouse (endogenous in mouse ovary, kidney and liver)); experiment: co-IP; lysates of kidney and liver of 7 dpp wild-type and Hdac6-OE mice; precipitated with HDAC6 antibody, protein A/G magnetic beads, NP-40 washes, Western blot (Figure 7F-G)
[2] = target: T2, mouse HDAC6 fused with a GFP tag (Hdac6-OE transgenic mouse) (mouse); experiment: co-IP; lysates of kidney and liver of wild-type and Hdac6-OE mice; precipitated with GFP antibody, protein A/G magnetic beads, NP-40 washes, Western blot (Figure 7H-I)
[3] = target: histone deacetylase 6 (HDAC6), endogenous, KGN cells (human (endogenous in KGN)) (UniProt Q9UBN7); experiment: co-IP; KGN cells; 'Co-IP analysis of HDAC6 and NGF'; panels in Figure S12E-G, precipitating antibody of each panel not shown

binding [1] | binding [2] | binding [3] | Molecule
binds | – | – | TSC2, endogenous, mouse (from UniProt Q61037 1-1814)
binds | binds | – | brain-derived neurotrophic factor (BDNF), endogenous, mouse (ligand, UniProt P21237 19-249) APMKEVNVHGQGNLAYPGVRTHGTLESVNGPRAGSRGLTTTSLADTFEHVIEELLDEDQKVRPNEENHKDADLYTSRVMLSSQVPLEPPLLFLLEEYKNYLDAANMSMRVRRHSDPARRGELSVCDSISEWVTAADKKTAVDMSGGTVTVLEKVPVSKGQLKQYFYETKCNPMGYTKEGCRGIDKRHWNSQCRTTQSYVRALTMDSKKRIGWRFIRIDTSCVCTLTIKRGR
– | – | binds | brain-derived neurotrophic factor (BDNF), endogenous, KGN cells (ligand, UniProt P23560 19-247) APMKEANIRGQGGLAYPGVRTHGTLESVNGPKAGSRGLTSLADTFEHVIEELLDEDQKVRPNEENNKDADLYTSRVMLSSQVPLEPPLLFLLEEYKNYLDAANMSMRVRRHSDPARRGELSVCDSISEWVTAADKKTAVDMSGGTVTVLEKVPVSKGQLKQYFYETKCNPMGYTKEGCRGIDKRHWNSQCRTTQSYVRALTMDSKKRIGWRFIRIDTSCVCTLTIKRGR

Source: PMC11024860
